Our source for the growth estimate values is the supplement of paper PMC5949888.

Most values lie at the floor of the assay. Slopes are relative: functional sequences can read slightly below zero.

This data set deals with Saccharomyces cerevisiae PS128 hsf1 delta, HSF1(1-493) fusion. Briefly: growth estimate (transactivation domain function in HSF1 fusion, heat-shock survival) (a.u. (slope of normalised read count over time)); higher = stronger growth at 37°C, i.e. more transactivation activity. Particulars: library: random library.
As to GVGRF, the growth estimate was under -0.25.

For the substance RYSACHRNLCSSPLYIVEGD, the growth estimate is under -0.25.

As for YGAVPPHTTVQWRVTKEGRW, the growth estimate is under -0.25.

RRPESGPHSSSVVVNVF: the growth estimate was under -0.25.

LSARSTRIVDLER: the growth estimate was under -0.25.

Turning to SCLRYTGNKVVRSGSYT, the growth estimate was under -0.25.

On to DELFEGWDIH, for which the growth estimate is under -0.25.

ELLQALGVCGQTRVNGTRVD: the growth estimate was under -0.25.

Turning to SFELEGV, the growth estimate was under -0.25.

Regarding GTCGGHK, the growth estimate was under -0.25.

Turning to GAV, the growth estimate was under -0.25.

For the substance HTQSITAI, the growth estimate was under -0.25.

In the case of GVGVTWLTGEPAEGTSSAHG, the growth estimate is under -0.25.

With CHESPSVNSLRYISRVPGSP, the growth estimate was under -0.25.

As to GRPGRNFSWPSRTD, the growth estimate was under -0.25.

On to CDSLGNS, for which the growth estimate is under -0.25.

Turning to TKLLGVVPAGFEPSYSRVLE, the growth estimate is under -0.25.

On to SSETRRRLPAVWLSPIATGG, for which the growth estimate was under -0.25.

As to SYHSAANTLSKQEFSDGIIA, the growth estimate is under -0.25.

On to VLPRVTVAIDTE, for which the growth estimate was under -0.25.

For the substance VTFVGRILNRPSFT, the growth estimate was under -0.25.

Regarding HGQASLEPTRVCVRPCVMGA, the growth estimate is under -0.25.

For the substance VVCVSPCV, the growth estimate is under -0.25.

Consider LSGLEGVARSERIDRHRYAG, for which the growth estimate is under -0.25.

As to AGSYRF, the growth estimate was under -0.25.

With PNLLPKVCGERWVWNKRQQN, the growth estimate is -0.231.

Consider IGYAPSCRPDYRGGETSGGT, for which the growth estimate was under -0.25.

As to WLWSDGALGM, the growth estimate was under -0.25.

For LSSMG, the growth estimate is under -0.25.

Take SGRCVRGSIHRPHFRDVVGG: the growth estimate is under -0.25.

As to YTDSGHQLISLGARGCELTI, the growth estimate was under -0.25.

For the substance KCVFTERKTKSPGDSASRCS, the growth estimate was under -0.25.

As for PSSIPSHTTVAGIAPARQR, the growth estimate is under -0.25.

IGTRWIYSNLCQGLTSLVTG: the growth estimate was under -0.25.

As to PYTCMTIASQSKGGPSLSLG, the growth estimate is under -0.25.

In the case of LSSC, the growth estimate was under -0.25.

In the case of FNAATIGDGLQKELPRGMVA, the growth estimate was under -0.25.

AKDTETKRKEHMSCAWVLPT: the growth estimate was under -0.25.

Regarding AGRWT, the growth estimate is under -0.25.

For the substance GSIISSSGAKDKTVPGRAPY, the growth estimate is under -0.25.

In the case of ACRYSFSGGERVTTRTGPGI, the growth estimate was under -0.25.

In the case of LEITFRVAPRCHVQT, the growth estimate is under -0.25.

Take NPEVVGLGQEAERVAPSPWP: the growth estimate is under -0.25.

Turning to FSSRKFALLQNN, the growth estimate is under -0.25.

For the substance LMYSEIWRNS, the growth estimate was under -0.25.

As to PGFSVDT, the growth estimate was -0.246.

As for FLRLCGKIVHPLWKGSIQGQ, the growth estimate is under -0.25.

For GWLTCVLRAAGLATYGNIR, the growth estimate was under -0.25.

As to REIHSFGAVVTVNGCRDIFP, the growth estimate is under -0.25.

Turning to IDNFMGWRLINLAIRSVEEV, the growth estimate is under -0.25.

Take RAIGSLRGGGLPKLEDTSNS: the growth estimate was under -0.25.

Regarding PHNR, the growth estimate is under -0.25.

As to ELKARSYFPIYVDFLGRCVH, the growth estimate was under -0.25.

As for LVDLATGHRYSRNCRMQGNQ, the growth estimate was under -0.25.

As to RTGKVTLLKYWPSSDILRGE, the growth estimate was under -0.25.

As for GYLTPFSMKRFVQRRIVTVL, the growth estimate was under -0.25.

For the substance DGLDRVRAFGRLSMEGRDDV, the growth estimate was under -0.25.

As for GIVCPLAWSSRENELRRTQV, the growth estimate was under -0.25.

Turning to IWHFA, the growth estimate is under -0.25.

As to RFTIRLCRRAWGATRAVPFT, the growth estimate is under -0.25.

Turning to THRKSCERTGSKGASITPNA, the growth estimate was under -0.25.

In the case of GIQKSPTKCVPFRNE, the growth estimate is under -0.25.
